Results taken from paper PMC10688271, “Molecular details of the CPSF73-CPSF100 C-terminal heterodimer and interaction with Symplekin”.

Biological target: T1, ec73-CTD3 (Encephalitozoon cuniculi) (UniProt Q8SUE4)
T1 sequence (looked up): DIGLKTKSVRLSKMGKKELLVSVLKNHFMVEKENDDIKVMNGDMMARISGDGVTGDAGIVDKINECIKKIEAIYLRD
Assay: EMSA
Conditions: 50 uM protein, 500 nM nucleic acid, EMSA: 20 mM Tris pH 7.5, 150 mM potassium acetate, 1 mM EDTA, 10% glycerol, 30 min incubation, 10% Tris-glycine gel, recombinant protein, residues 567-643, protein details: His6 tag removed by TEV

[1] = label: 3' Cy3 on forward strand

Sequence | binding result [1] | also measured
AGGGTCTCCATTTTGAAGCATGC [ssDNA-Cy3] |  | binding result (label: 3' Cy3, single-stranded DNA): no binding
AGGGUCUCCAUUUUGAAGCAUGC / GCAUGCUUCAAAAUGGAGACCCU [dsRNA-Cy3] | no binding | 
AGGGUCUCCAUUUUGAAGCAUGC [ssRNA-Cy3] |  | binding result (label: 3' Cy3): no binding
AGGGTCTCCATTTTGAAGCATGC (double strand) [dsDNA-Cy3] | no binding | 

Negatives hold for the conditions tested. At least one verdict rests on a figure or table, not on a statement of the authors. Tags and fusion partners may be left off the protein sequences shown.
